# Source: PubChem BioAssay AID1508588 (Peter MacCallum Cancer Centre, 2020)
# Test: 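Genome-wide search for knock-downs that heighten vemurafenib action in melanoma cells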 (primary screen)
# System: human WM266.4 melanoma cells (BRAF V600 mutant)
# Reagent: siRNA pool against human genes, 40 nM
# Timing: 96 h from transfection to read-out
# Conditions: vemurafenib 300 nM (about IC25), added 48 h after transfection, for 48 h; comparison arm got DMSO vehicle only
# Detection: 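Cell gain (DAPI nuclei at end minus before drug, mean of two replicates) and medium lactate by absorbance per cell, both as ratio to non-targeting siRNA, also grouped into fold-change classes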
# Scale: cell gain with vemurafenib: higher = more cell gain than with non-targeting siRNA; lactate per cell with vemurafenib: higher = more lactate made per cell
# Active means: 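a knock-down counts as enhancing when its fold-change classes with vehicle and with vemurafenib, taken together, show a stronger drug effect on cell gain or lactate per cell; exact class pairs not stated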
# Calls: active = enhances vemurafenib effect; inactive = no enhancement seen
# The whole screen tested about 18,000 reagents; shown is an unselected part. 790 of them (4.4%) count as active. 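Calls rest on a combination of fold-change classes in drug and vehicle arms, not all shown here.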 Entries without a mark were called inactive.
gene symbol,PubChem SID,cell gain with vemurafenib,lactate per cell with vemurafenib
ESRRG (GeneID 2104),SID134309856,1,0.9
DEF6 (GeneID 50619),SID152150989,0.68,1.7
TAS2R20 (GeneID 259295),SID152153017,0.59,0.86
TGM7 (GeneID 116179),SID152156052,0.5,0.58
RAD9B (GeneID 144715),SID134320179,0.74,0.52
ELK4 (GeneID 2005),SID134314888,0.63,0.77
SLC10A3 (GeneID 8273),SID152148051,0.37,0.97
MTSS2 (GeneID 92154),SID135624313,0.86,0.7
ODC1 (GeneID 4953),SID134311943,0.07,1.26
SLC26A5 (GeneID 375611),SID134329425,0.11,1.38
RGCC (GeneID 28984),SID152150660,0.62,0.54
MRPS22 (GeneID 56945),SID134317453,0.79,0.66
ZNF700 (GeneID 90592),SID135624974,0.77,1.29
TENT5C (GeneID 54855),SID152156276,0.52,1.02
ZAP70 (GeneID 7535),SID56479064,0.99,0.74
SEC16A (GeneID 9919),SID152149059,0.55,1.74
ADCY8 (GeneID 114),SID134311928,0.18,0.71
YPEL4 (GeneID 219539),SID134320651,0.66,0.94
KIR2DL1 (GeneID 3802),SID135624029,0.24,1.29
ANK3 (GeneID 288),SID134315564,1.03,0.76
STK25 (GeneID 10494),SID135620899,0.29,0.62
COL1A1 (GeneID 1277),SID152153595,0.59,0.78
FHIP1B (GeneID 84067),SID152146859,0.12,1.75
BFSP2 (GeneID 8419),SID134315806,0.3,0.73
DGKG (GeneID 1608),SID152147412,0.75,0.92
IL13 (GeneID 3596),SID134310579,0.61,0.55
CNKSR1 (GeneID 10256),SID135622272,-0.16,4.47
SLC25A31 (GeneID 83447),SID152155383,1,0.72
CUEDC1 (GeneID 404093),SID134329338,0.68,0.6
VCY (GeneID 9084),SID134311804,0.37,0.99
TRIM51EP (GeneID 399940),SID135624862,0.76,0.67
SAFB (GeneID 6294),SID134310771,0.44,0.93
MTM1 (GeneID 4534),SID134312968,0.25,1.08
ZRANB2 (GeneID 9406),SID134314781,0.65,1.43
